No constants are given. Whether binding was seen depends on the method and setting. In cells and extracts the contact can be indirect. These calls come from enrichment with a bait or labelling near it, and not all partners need be listed.

By UniProt entry, the sequences of proteins in these tests, tags left out.
UniProt Q8TDY2: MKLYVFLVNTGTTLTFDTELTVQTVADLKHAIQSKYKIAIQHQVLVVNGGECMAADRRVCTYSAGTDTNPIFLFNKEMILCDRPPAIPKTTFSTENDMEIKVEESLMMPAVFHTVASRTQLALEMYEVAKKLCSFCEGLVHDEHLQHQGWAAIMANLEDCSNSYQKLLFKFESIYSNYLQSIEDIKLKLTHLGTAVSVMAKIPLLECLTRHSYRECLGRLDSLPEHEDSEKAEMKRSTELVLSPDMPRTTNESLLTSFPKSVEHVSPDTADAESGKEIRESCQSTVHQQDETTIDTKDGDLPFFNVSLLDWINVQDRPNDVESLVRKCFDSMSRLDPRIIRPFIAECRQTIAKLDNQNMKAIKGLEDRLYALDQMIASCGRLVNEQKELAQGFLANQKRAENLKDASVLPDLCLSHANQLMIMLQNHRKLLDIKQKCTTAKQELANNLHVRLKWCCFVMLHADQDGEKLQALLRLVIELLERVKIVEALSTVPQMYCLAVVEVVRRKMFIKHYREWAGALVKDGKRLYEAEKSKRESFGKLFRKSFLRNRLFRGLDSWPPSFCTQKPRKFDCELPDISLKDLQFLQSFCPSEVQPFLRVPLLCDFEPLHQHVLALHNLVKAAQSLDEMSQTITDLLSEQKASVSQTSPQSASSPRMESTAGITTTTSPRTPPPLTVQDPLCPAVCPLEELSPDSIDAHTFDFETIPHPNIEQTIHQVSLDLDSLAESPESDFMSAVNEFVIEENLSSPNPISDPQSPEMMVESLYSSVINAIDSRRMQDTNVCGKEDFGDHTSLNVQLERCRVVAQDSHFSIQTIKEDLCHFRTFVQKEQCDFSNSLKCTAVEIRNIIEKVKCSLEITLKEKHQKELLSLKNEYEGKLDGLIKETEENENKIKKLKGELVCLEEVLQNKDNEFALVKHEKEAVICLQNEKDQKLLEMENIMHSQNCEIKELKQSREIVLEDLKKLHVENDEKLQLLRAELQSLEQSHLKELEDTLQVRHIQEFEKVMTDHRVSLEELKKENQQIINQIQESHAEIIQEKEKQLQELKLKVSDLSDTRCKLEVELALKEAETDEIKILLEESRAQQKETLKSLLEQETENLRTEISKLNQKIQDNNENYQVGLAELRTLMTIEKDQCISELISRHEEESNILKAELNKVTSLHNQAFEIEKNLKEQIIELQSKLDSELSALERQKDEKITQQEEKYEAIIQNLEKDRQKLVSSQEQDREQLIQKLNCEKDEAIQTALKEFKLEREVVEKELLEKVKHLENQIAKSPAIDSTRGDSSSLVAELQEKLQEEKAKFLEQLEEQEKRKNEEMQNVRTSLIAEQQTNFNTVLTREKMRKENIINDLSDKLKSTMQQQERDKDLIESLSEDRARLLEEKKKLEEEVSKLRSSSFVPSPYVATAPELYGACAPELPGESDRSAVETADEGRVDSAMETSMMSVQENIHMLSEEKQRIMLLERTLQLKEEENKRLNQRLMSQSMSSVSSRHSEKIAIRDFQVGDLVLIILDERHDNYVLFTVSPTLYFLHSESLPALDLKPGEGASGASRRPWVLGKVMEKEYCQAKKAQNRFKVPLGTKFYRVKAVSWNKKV
UniProt O95786: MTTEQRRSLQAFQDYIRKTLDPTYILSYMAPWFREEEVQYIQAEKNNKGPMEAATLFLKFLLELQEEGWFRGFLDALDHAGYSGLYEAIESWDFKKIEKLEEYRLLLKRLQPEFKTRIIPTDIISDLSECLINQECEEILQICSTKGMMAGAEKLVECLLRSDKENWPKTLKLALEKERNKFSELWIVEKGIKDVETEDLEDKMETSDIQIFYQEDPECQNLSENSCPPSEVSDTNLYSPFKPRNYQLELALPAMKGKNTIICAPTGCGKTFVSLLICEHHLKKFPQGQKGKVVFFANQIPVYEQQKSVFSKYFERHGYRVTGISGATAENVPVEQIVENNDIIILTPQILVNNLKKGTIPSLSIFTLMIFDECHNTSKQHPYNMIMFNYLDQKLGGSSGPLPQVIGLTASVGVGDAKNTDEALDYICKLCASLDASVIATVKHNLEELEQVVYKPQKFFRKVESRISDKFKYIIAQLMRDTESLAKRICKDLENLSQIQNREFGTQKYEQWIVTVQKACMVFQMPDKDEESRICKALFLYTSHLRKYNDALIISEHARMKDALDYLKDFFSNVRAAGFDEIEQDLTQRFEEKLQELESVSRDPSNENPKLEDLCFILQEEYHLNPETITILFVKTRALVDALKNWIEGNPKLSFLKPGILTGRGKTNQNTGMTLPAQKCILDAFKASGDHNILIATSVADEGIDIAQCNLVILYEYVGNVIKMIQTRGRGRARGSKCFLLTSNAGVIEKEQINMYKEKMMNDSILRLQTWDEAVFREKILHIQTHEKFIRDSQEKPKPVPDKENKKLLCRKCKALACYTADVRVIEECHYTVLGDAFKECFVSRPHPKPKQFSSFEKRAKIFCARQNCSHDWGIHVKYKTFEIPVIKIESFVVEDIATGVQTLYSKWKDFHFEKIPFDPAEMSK

This passage reports binding results from PMC8322336.

This experiment concerns the target FLAG-tagged FIP200 (not stated (a human plasmid, pMXs-IP-EGFP-hFIP200, is named)) (UniProt Q8TDY2). Put plainly: affinity purification with mass spectrometry; HEK293 cells stably expressing FLAG-tagged FIP200, TAP lysis buffer, anti-FLAG resin 16 h at 4 C, eluted with FLAG peptide; SAINT score cutoff 0.89; repeated twice.

For “endogenous RIG-I of HEK293 cells (from UniProt O95786 1-925)”, the binding result is given as “binds”.
